{"source": "PubChem BioAssay AID264", "about": "(DTP/NCI, 2004)", "test_system": "nude mice, LX-1 lung xenograft intrarenal, tumor weight T/C", "experiment": "NCI In Vivo Anticancer Drug Screen. Data for tumor model Human Lung LX-1 Xenograft (intrarenal inoculation) in NU/NU Swiss (nude) mice", "details": "T/C endpoint: mean tumor weight change; dose: 0.25 mg/kg/injection; schedule: Q01DX010 (sc); vehicle: saline; evaluated on day 11; higher T/C = larger tumour", "method": "The antitumor activity of compounds was measured in mice bearing transplantable tumors. Survival or tumor size were measured and the results are expressed as the measurement made in the treated group (T) divided by the measurement made in the vehicle treated control group (C). The tumor model used in this assay is Human Lung LX-1 Xenograft (intrarenal inoculation) in NU/NU Swiss (nude) mice", "note": "The list is a part of this screen's results and no random one: it covers a few groups of compounds. Not every dose and run of a compound is shown. T/C gives the treated animals as a percentage of the vehicle group. Schedules are NCI's codes, taken here to give the interval after Q, in days (D) or hours (H), and the number of doses after X."}
{"smiles": "CN(CCCl)CCCl", "values": [{"measurement": "T/C", "value": "190 % of control"}]}
